The results in this text go back to patent US8389717B2.

Structures were worked out from names or drawings and are uncertain.

The target of this assay is γ-secretase (Homo sapiens, UniProt P49768). The assay is described as follows: Cellular assay: inhibition of Aβ42 secretion in H4 cells overexpressing human APP. Particulars: read-out: IC50 in vitro, human neuroglioma H4 cells overexpressing human APP, 22 hrs incubation. As for the experimental part:
Human neuroglioma H4 cells overexpressing human APP were plated at 30,000 cells/well/200 μl in 96-well plates in IMDM media containing 10% FCS, 0.2 mg/l Hygromycin B and incubated for 2 h at 37° C., 5% CO2 prior to adding test compounds.
Compounds for testing were dissolved in 100% Me2SO yielding in a 10 mM stock solution. Typically 12 μl of these solutions were further diluted in 1000 μl of IMDM media (w/o FCS,). Sub sequential 1:1 dilutions gave a ten point dose response curve. 100 μl of each dilution was added to the cells in 96-well plates. Appropriate controls using vehicle only and reference compound were applied to this assay. The final concentration of Me2SO was 0.4%. After incubation for 22 hrs at 37° C., 5% CO2, 50 μl supernatant was transferred into round-bottom 96-well polypropylene plates for detection of Aβ42. 50 μl assay buffer (50 mM Tris/C1, pH 7.4, 60 mM NaCl, 0.5% BSA, 1% TWEEN 20) was added to the wells followed by the addition of 100 μl of detection antibody (ruthenylated Aβ42-specific antibody BAP15 0.0625 μg/mL in assay buffer). […] Assay plates were incubated on a shaker for 3 hrs at room temperature and finally read in the Bioveris M8 Analyser according to the manufacturer's instructions (Bioveris).
IC50 values for inhibition of Aβ42 secretion were calculated by nonlinear regression fit analysis using XLfit 4.0 software (IDBS).

In general, IC50 refers to the concentration needed to halve the response being measured. For `COc1nc(Nc2ccc(-n3cnc(C)c3)c(OC)c2)nc(Oc2ccc(F)cc2)n1`, the concentration for half-maximal inhibition (IC50) is 870 nM.
